Some of the results follow. These are further read-outs of the screen, such as a control signal, another cell line or another target. No call is given for them. Most of these compounds were active or inconclusive in the main read-out, so they are no random draw. The note in brackets gives the kind of curve behind each potency; many fits are weak.
Test: qHTS Assay for Lipid Storage Modulators in Drosophila S3 Cells;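 on cell number change: cells counted by Cell Tracker Red CMTPX staining in the red channel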
Conditions: BODIPY lipid droplet fluorescence, 18-24 h; for cell number change: measured here: cell count max response, cells fed with added oleic acid
Summary of the method: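 Laser-scanning cytometry quantifies lipid droplet accumulation (500–530 nm total intensity; droplet/cell object ratio) in oleic acid-fed (400 uM added) Drosophila S3 cells treated with a concentration series. 20 uM Triacsin C defined 100% inhibition.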

[1] = measured here: cell number channel AC50, cells fed with added oleic acid
[2] = measured here: lipid fluorescence (Fed channel) AC50, cells fed with added oleic acid

Row | Structure (SMILES) | cell number change [%] | AC50 [1] | AC50 [2]
1 | O=C(CCNC(=O)c1ccccc1Cl)Nc1ccc(Cl)c(C(F)(F)F)c1 | 18.2 | 0.146 µM [rising, full curve, poor fit] | 29.1 µM [rising, partial curve]
2 | CCOC(=O)c1c(CN(CC)CC)n(C)c2cc(Br)c(O)cc12 | 18.2 |  | 
3 | CCN(CC(=O)Nc1c(F)cccc1F)C(=O)c1cc(C)nc2ccccc12 | 24 |  | 
4 | O=C(Cn1c(=O)n(Cc2ccco2)c(=O)c2cc(Cl)ccc21)NCC1CCCO1 (stereo not given) | -4.87 |  | 29.1 µM [rising, single point]
5 | Cc1ccc(S(=O)(=O)NC(=O)N2CCCN(Cc3ccc(F)cc3)CC2)cc1 | -42.8 | 0.651 µM [falling, full curve] | 0.731 µM [falling, full curve]
6 | CCCNC(=O)Cn1cnc2sc(C(=O)NCCN(CC)CC)c(C)c2c1=O | 20.4 |  | 20.6 µM [rising, single point]
7 | COc1ccc(C(=O)NC(=S)NCc2ccccc2)cc1 | 31.3 | 0.146 µM [rising, full curve, poor fit] | 
8 | O=C(N/N=C/c1ccccc1)c1ccc(CN2C(=O)c3cccc4cccc2c34)cc1 | -6.21 |  | 
9 | O=C(NC1CCCC1)C(c1ccncc1)N(Cc1ccccc1)C(=O)Cc1cccs1 (stereo not given) |  |  | 2.31 µM [falling, partial curve]
10 | N#Cc1ccccc1NC1=CC(=O)CCC1 | 7.69 |  | 5.17 µM [falling, partial curve]
11 | Cc1ccc(S(=O)(=O)C2(C(=O)Nc3cccnc3)CC2)cc1 |  |  | 3.26 µM [rising, partial curve]
12 | CCCCn1c(N)c(N(CCOC)C(=O)c2ccc(C)c(S(=O)(=O)N3CCCCC3)c2)c(=O)[nH]c1=O | -6 |  | 
13 | COc1ccc(OC)c(S(=O)(=O)Nc2cnc3ccccc3c2)c1 | -6.41 |  | 2.06 µM [rising, full curve]
14 | O=C(Cc1ccc(Cl)cc1)Nc1ccc(-c2nnc(-c3ccco3)o2)cc1 | -47.8 | 32.6 µM [falling, partial curve] | 29.1 µM [falling, single point]
15 | Cc1ccccc1Nc1nnc(SCC2CCCCO2)s1 (stereo not given) |  |  | 6.51 µM [rising, single point]
16 | O=C(COC(=O)CN1C(=O)C(=O)c2ccccc21)OCN1C(=O)c2ccccc2C1=O | 13.5 |  | 
17 | COC(=O)c1cc(CNC(=O)c2ccc(S(=O)(=O)N(C)c3ccccc3)cc2)ccc1OC | -15.9 |  | 
18 | CC(=O)c1cccc(S(=O)(=O)NC2CC2)c1 |  |  | 1.16 µM [rising, full curve, poor fit]
19 | CC1=NN(c2ccccc2)C(=O)/C1=C\c1ccc(Oc2ccc([N+](=O)[O-])cc2[N+](=O)[O-])cc1 | -8.81 |  | 20.6 µM [falling, single point]
20 | CCOc1cc(/C=N/NC(=O)NN(C)c2ncc(C(F)(F)F)cc2Cl)ccc1O | -22.4 | 3.26 µM [falling, single point] | 

Row | Structure (SMILES) | cell number change [%] | AC50 [1] | AC50 [2]
21 | CCCC(CCC)n1[nH]c(=O)c2c(C)cc(C)nc21 | -15.1 | 6.51 µM [falling, single point] | 
22 | CS(=O)(=O)N1c2cccc3cccc(c23)S1(=O)=O | -41.4 | 29.1 µM [falling, single point] | 
23 | O=C(OCc1nc2ccccc2s1)c1ccc(Br)o1 | -50.8 | 2.31 µM [falling, full curve] | 1.64 µM [falling, partial curve]
24 | COC(=O)c1ccccc1OCCOc1ccccc1C(=O)OC | 20.8 |  | 
25 | CCc1cccc(C)c1NC(=O)CSc1nnc(C)o1 | 1.76 |  | 0.82 µM [falling, full curve, poor fit]
26 | Cc1ccc(S(=O)(=O)Nc2ccc3c(c2)nc(CCN2CCOCC2)n3C)cc1 | -26.4 |  | 10.3 µM [falling, partial curve]
27 | O=C(COc1ccc2ccccc2c1Br)Nn1cnnc1 | 13 | 1.46 µM [falling, partial curve] | 0.731 µM [falling, full curve]
28 | CCCCOc1ccc(CSC2=NCCN2)cc1[N+](=O)[O-] |  | 0.651 µM [rising, single point] | 
29 | C=CCn1c(SCC(=O)/C(C#N)=C(\C)N)nc2sc(CC)cc2c1=O | -32.4 | 2.91 µM [falling, full curve, poor fit] | 8.2 µM [falling, partial curve]
30 | Cc1cccc(Cc2nnc(CCC(=O)N(C)CCc3ccccc3)o2)c1 | 1.1 |  | 
31 | Cc1ccc(OC(=O)c2cc3ccccc3o2)cc1 | -24.4 | 0.146 µM [falling, full curve, poor fit] | 0.146 µM [falling, full curve, poor fit]
32 | CCn1cc(C(=O)O)c(=O)c2cc(F)c(N3CCN(C(=S)NC(=O)c4cccc(F)c4)CC3)cc21 | -15.2 |  | 6.51 µM [falling, single point]
33 | C=CCN1C(=O)/C(=C\c2cc(Br)c(OCc3ccccn3)c(OC)c2)SC1=S | -9.49 | 0.58 µM [rising, full curve] | 
34 | CCSc1nc(C)c(C(C)=O)cc1C#N | 0.0256 |  | 0.0651 µM [rising, full curve, poor fit]
35 | CCCCC1(C(=O)OCC)CC(CSC(=N)N)OC1=O (stereo not given) | -2.48 |  | 4.11 µM [falling, full curve, poor fit]
36 | CCn1nnnc1SCC(=O)N1CCN(Cc2ccc3c(c2)OCCO3)CC1 | -5.16 |  | 2.59 µM [falling, full curve]
37 | Oc1ccc(Br)cc1C=Nc1ccc2[nH]ncc2c1 | 2.96 |  | 11.6 µM [falling, single point]
38 | O=C(CCc1ccccc1)Nc1ccc(NC(=O)c2ccco2)cc1 | 9.65 |  | 5.8 µM [rising, partial curve]
39 | CCN(c1ccccc1)S(=O)(=O)c1ccc(C(=O)Nc2ccncc2)cc1 | 102 | 18.4 µM [rising, partial curve] | 25.9 µM [falling, single point]
40 | CC(=O)N(CCC1(C(C)C)CCOC(C)(C)C1)Cc1ccco1 (stereo not given) | 3.12 |  | 25.9 µM [rising, single point]

Part of the list above in order of count of non-hydrogen atoms, low to high.
Row | Structure (SMILES) | cell number change [%] | AC50 [1] | AC50 [2]
34 | CCSc1nc(C)c(C(C)=O)cc1C#N | 0.0256 |  | 0.0651 µM [rising, full curve, poor fit]
21 | CCCC(CCC)n1[nH]c(=O)c2c(C)cc(C)nc21 | -15.1 | 6.51 µM [falling, single point] | 
25 | CCc1cccc(C)c1NC(=O)CSc1nnc(C)o1 | 1.76 |  | 0.82 µM [falling, full curve, poor fit]
27 | O=C(COc1ccc2ccccc2c1Br)Nn1cnnc1 | 13 | 1.46 µM [falling, partial curve] | 0.731 µM [falling, full curve]
24 | COC(=O)c1ccccc1OCCOc1ccccc1C(=O)OC | 20.8 |  | 
38 | O=C(CCc1ccccc1)Nc1ccc(NC(=O)c2ccco2)cc1 | 9.65 |  | 5.8 µM [rising, partial curve]
26 | Cc1ccc(S(=O)(=O)Nc2ccc3c(c2)nc(CCN2CCOCC2)n3C)cc1 | -26.4 |  | 10.3 µM [falling, partial curve]
32 | CCn1cc(C(=O)O)c(=O)c2cc(F)c(N3CCN(C(=S)NC(=O)c4cccc(F)c4)CC3)cc21 | -15.2 |  | 6.51 µM [falling, single point]

Reference: PubChem BioAssay AID2685 (National Center for Advancing Translational Sciences (NCATS), 2010)
